Test results reported in PubChem BioAssay AID624246 (National Center for Advancing Translational Sciences (NCATS), 2012).
Out of some 370,000 compounds screened, about 100 (0.027%) were called active. Inconclusive results, whose numbers are uncertain, are shown with a selection of clear calls. Calls follow the shape of the dose curve; as a rule, active = well fitted inhibition curve with a large enough effect in the polarisation, with a control signal flat; inconclusive = small, poorly fitted or top-dose-only effect, or effect the other way, or a change in a side signal; inactive = no such curve, though single readings can be large or run the other way; the % refers to the polarisation. A potency beside an inconclusive call is a rough fit, not a confirmed value. A note “side channel” means that the fit belongs to a control or component signal, not to the main read-out. Peptide text beside a SMILES is read from it.

Protein sequences, listed by entry. Tags and fused reporters are not part of them. Lines headed by an entry give the natural chain unless they say otherwise; changes in a name come on top.
UniProt P11308: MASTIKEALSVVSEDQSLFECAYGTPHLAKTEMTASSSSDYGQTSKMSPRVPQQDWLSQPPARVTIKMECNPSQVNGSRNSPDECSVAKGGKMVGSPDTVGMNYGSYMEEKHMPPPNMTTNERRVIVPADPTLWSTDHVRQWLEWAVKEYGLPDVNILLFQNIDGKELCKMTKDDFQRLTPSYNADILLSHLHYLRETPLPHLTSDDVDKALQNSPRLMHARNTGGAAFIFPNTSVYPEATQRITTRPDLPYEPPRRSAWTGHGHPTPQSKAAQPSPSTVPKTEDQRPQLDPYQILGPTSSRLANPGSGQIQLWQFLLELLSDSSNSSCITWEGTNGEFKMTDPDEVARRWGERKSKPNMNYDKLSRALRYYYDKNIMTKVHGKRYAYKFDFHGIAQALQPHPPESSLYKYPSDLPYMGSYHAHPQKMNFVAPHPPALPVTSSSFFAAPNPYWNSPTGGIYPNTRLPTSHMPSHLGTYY

biological target: Transcriptional regulator ERG (Homo sapiens) (UniProt P11308); experiment: qHTS for Small Molecule Inhibitors of the ERG Ets/DNA interaction; details: fluorescence polarization, His-ERG Ets domain / labelled DNA; FP activity, negative = inhibition: at 76.9 µM (top of the series); as to FP activity, negative = inhibition: % of control where 0% means no effect
In short: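 His-tagged ERG Ets domain (1 uM in the protein solution; 300mM KCl, 50mM Tris-HCl, 1mM EDTA, 1mM DTT, pH 7.5) received compound, then a probe mix of 5 nM fluorescein-DNA and 100nM Texas-615-DNA. Fluorescence polarization was read for both dyes.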
Potency is read from the fitted curve at half-maximal effect.

| Compound | Potency | FP activity, negative = inhibition |
| --- | --- | --- |
| CCOC(=O)c1c(C)c(C(=O)Nc2ccc3c(c2)OCO3)c(C)n1C | inconclusive: 10 µM [fluorescent, side channel, single point] |  |
| O=C(NCC(=O)N1CCCC(C(F)(F)F)C1)c1cccs1 (configuration not stated) | inconclusive: 39.8 µM [inhibitor, single point] |  |
| Fc1ccc(Br)cc1C1C=C(c2cccnc2)Nc2ncnn21 (configuration not stated) |  | inactive: 9.27% |
| O=C(CN1C(=O)/C(=C\c2ccco2)SC1=S)Nc1ccc(O)cc1C(=O)O |  | inactive: -13.3% |
| COc1ccc(NC(=O)COC(=O)C2CC(=O)N(c3ccc(C)cc3)C2)cc1 (configuration not stated) | inconclusive: 28.2 µM [inhibitor, single point] |  |
| O=C(Nc1ccccc1Cl)c1ccc(Cl)cc1Cl | inconclusive: 31.6 µM [inhibitor, single point] |  |
| CN(C)CCNC(=O)C1CCN(Cc2cc3ccccc3n2Cc2ccccc2)CC1 |  | inactive: 11.3% |
| O=C(NC1=NCCS1)c1cc(-c2cccc(Br)c2)nc2ccccc12 | inconclusive: 7.08 µM [quencher, side channel, partial curve, poor fit] |  |
| O=C1CC(C(=O)Nc2ccccc2)S/C(=N\NC(=O)c2ccccc2Cl)N1 (configuration not stated) |  | inactive: -5.71% |
| COc1ccc(-c2cc(C(F)(F)F)n3ncc(C(=O)NCC4CCCO4)c3n2)cc1 (configuration not stated) | inconclusive: 28.2 µM [quencher, side channel, single point] |  |
| CCOc1cc(Br)c(CN2C(=O)NC3(CCCCCC3)C2=O)cc1OCC |  | inactive: -7.61% |
| COc1ccccc1N1CCN(C(=S)Nc2ccc3nc(N4CCOCC4)cc(C)c3c2)CC1 | inconclusive: 11.2 µM [quencher, single point] |  |
| CCOC(=O)c1c(C)[nH]c(C(=O)COC(=O)CNC(=O)c2ccc(Cl)cc2Cl)c1C | inconclusive: 0.891 µM [inhibitor, full curve, poor fit] |  |
| Clc1ccc(CSc2nnc(-c3cccnc3)o2)cc1 |  | inactive: 8.71% |
| COc1ccccc1C(C)NC(=O)c1cc(S(=O)(=O)N2CCCCC2)ccc1C (configuration not stated) | inconclusive: 2.24 µM [inhibitor, partial curve, poor fit] |  |
| Cc1ccnc(NC(=O)c2cccc(S(=O)(=O)Nc3ccc(C)cc3C)c2)c1 | inconclusive: 7.08 µM [inhibitor, partial curve, poor fit] |  |
| Cc1ccc([N+](=O)[O-])cc1NC(=O)CCCOc1ccccc1 |  | inactive: -0.305% |
| Cc1ccc2c(CN(C)Cc3cccc(F)c3)cc(=O)oc2c1C |  | inactive: 40.8% |
| COC(=O)[C@@]1(C)[C@H]2C(=O)N(Cc3ccccc3)C(=O)[C@H]2[C@H]2CN(C)C(=NC3CCCCC3)N21 | inconclusive: 35.5 µM [inhibitor, single point] |  |
| CCNc1nc(NCC)nc(N(C)/N=C/c2ccco2)n1 | inconclusive: 11.2 µM [inhibitor, single point] |  |
| OCCC1CN(Cc2cnn(-c3ccc(F)cc3)c2)CCN1Cc1ccsc1 (configuration not stated) | inconclusive: 0.891 µM [quencher, side channel, full curve, poor fit] |  |

| Compound | Potency | FP activity, negative = inhibition |
| --- | --- | --- |
| CCc1ccc(NC(=O)c2sc3nc4c(cc3c2N)CN(CC)CC4)cc1 | inconclusive: 12.6 µM [quencher, side channel, full curve, poor fit] |  |
| COc1ccc(C2C(C(C)=O)=C(C)N=c3s/c(=C\c4cc(C)n(C)c4C)c(=O)n32)c(OC)c1 (configuration not stated) | inconclusive: 20 µM [fluorescent, side channel, partial curve] |  |
| Cc1nc(Cl)c2c(n1)NC1=C(O2)C(=O)CCC1 | inconclusive: 28.2 µM [fluorescent, side channel, partial curve, poor fit] |  |
| CC(=O)C(c1ccccc1)C(c1ccccc1)C(C)[N+](=O)[O-] (configuration not stated) | inconclusive: 22.4 µM [inhibitor, partial curve, poor fit] |  |
| C[C@H]1c2cccc(O)c2C(=O)C2C(=O)C3(O)C(=O)C(C(N)=O)C(=O)[C@@H](N(C)C)[C@@H]3[C@@H](O)[C@@H]21 (some centres not stated) | inconclusive: 11.2 µM [inhibitor, single point] |  |
| CCOC(=O)c1cn(-c2nc(-c3ccc(Cl)c(Cl)c3)cs2)c2c(F)c(N3CCOCC3)c(F)cc2c1=O | inconclusive: 31.6 µM [inhibitor, partial curve, poor fit] |  |
| Cc1cccc(Cc2c(C)nc3nc(SCc4ccccc4Cl)nn3c2C)c1 | inconclusive: 39.8 µM [inhibitor, partial curve, poor fit] |  |
| CC1Cc2cc(/C(O)=C3/C(=O)C(=O)N(CCN4CCOCC4)C3c3ccc([N+](=O)[O-])cc3)ccc2O1 (configuration not stated) |  | inactive: 8.76% |
| CCN(CC)c1ccc2cc(-c3nc(-c4cc5ccccc5oc4=O)cs3)c(=O)oc2c1 |  | inactive: 8.17% |
| O=C(COc1ccc(-c2ccccc2)cc1)N1CCN(C(=O)c2cccs2)CC1 | inconclusive: 35.5 µM [inhibitor, single point] |  |
| COC(=O)c1ccc2c(c1)C(C)(C)C(/C=C/c1ccc(O)cc1)=[N+]2C | inconclusive: 35.5 µM [fluorescent, side channel, partial curve] |  |
| CC(C)CCN1CCC(CN2C(=O)C(=O)NC[C@@H]2Cc2ccccc2)CC1 |  | inactive: -8.39% |
| N#C/C(=C\c1cccnc1)C(=O)Nc1ccc(O)cc1F | inconclusive: 50.1 µM [inhibitor, single point] |  |
| COc1cccc(C(c2c(C)[nH]n(-c3ccccc3)c2=O)c2c(C)[nH]n(-c3ccccc3)c2=O)c1O | inconclusive: 39.8 µM [inhibitor, single point] |  |
| COc1ccccc1N1C(=O)C=C(Sc2nc(C)cc(C)n2)C1=O | inconclusive: 56.2 µM [inhibitor, partial curve, poor fit] |  |
| Cn1c(=O)oc2cc(S(=O)(=O)N3CCN(c4ccccc4F)CC3)ccc21 | inconclusive: 2.24 µM [inhibitor, full curve] |  |
| O=C(NCCN1CCN(c2ccccc2)CC1)c1cccc(Br)c1 | inconclusive: 39.8 µM [inhibitor, partial curve, poor fit] |  |
| CCOC(=O)NCc1ccc2c(c1)cc(C)n2C | inconclusive: 39.8 µM [inhibitor, partial curve, poor fit] |  |
| Cc1nn(C)cc1N1C(=O)c2cccc3c(N)ccc(c23)C1=O | inconclusive: 28.2 µM [fluorescent, side channel, single point] |  |
| CC(CN1CCCCC1)NC(=O)c1cccs1 (configuration not stated) | inconclusive: 5.62 µM [inhibitor, partial curve, poor fit] |  |
| COc1ccc(C2=CC3=C(Br)C(=O)C(C)(O)C(=O)C3=CO2)cc1 (configuration not stated) |  | inactive: 8.4% |

Three compounds already listed, arranged by length of the SMILES, smallest number first:

| Compound | Potency | FP activity, negative = inhibition |
| --- | --- | --- |
| COC(=O)c1ccc2c(c1)C(C)(C)C(/C=C/c1ccc(O)cc1)=[N+]2C | inconclusive: 35.5 µM [fluorescent, side channel, partial curve] |  |
| COc1cccc(C(c2c(C)[nH]n(-c3ccccc3)c2=O)c2c(C)[nH]n(-c3ccccc3)c2=O)c1O | inconclusive: 39.8 µM [inhibitor, single point] |  |
| C[C@H]1c2cccc(O)c2C(=O)C2C(=O)C3(O)C(=O)C(C(N)=O)C(=O)[C@@H](N(C)C)[C@@H]3[C@@H](O)[C@@H]21 (some centres not stated) | inconclusive: 11.2 µM [inhibitor, single point] |  |

(cont.)

| Compound | Potency | FP activity, negative = inhibition |
| --- | --- | --- |
| COc1ccccc1CNC(=O)CCc1c(C)nc2cc(-c3ccccc3OC)nn2c1C | inconclusive: 3.55 µM [quencher, side channel, full curve] |  |
| CN(C(=O)COC(=O)c1cc(S(=O)(=O)N2CCOCC2)ccc1F)C1CCS(=O)(=O)C1 (configuration not stated) | inconclusive: 11.2 µM [inhibitor, partial curve, poor fit] |  |
| CC(=O)C1CCCN(C(=O)c2ccc3oc(CCc4ccccc4)nc3c2)C1 (configuration not stated) |  | inactive: -6.16% |
| Cc1cccc(NC(=O)CN2C(=O)CNC2=O)c1 | inconclusive: 8.91 µM [inhibitor, single point] |  |
| Cc1cc(C(=O)COC(=O)c2ccc(Cl)c(S(N)(=O)=O)c2)c(C)n1C1CC1 |  | inactive: 5.49% |
| Cc1cccc(C(=O)N[C@H](C(=O)Nc2ccc(C)c(S(=O)(=O)N(C)C)c2)C(C)C)c1 | inconclusive: 8.91 µM [inhibitor, single point] |  |
| COC(=O)c1ccccc1SC(CC(=O)c1ccccc1)c1ccc(F)cc1 (configuration not stated) | inconclusive: 31.6 µM [inhibitor, partial curve] |  |
| CN(C)c1nc(C=C(C#N)C#N)c(Cl)n1-c1ccc(F)cc1 | inconclusive: 50.1 µM [inhibitor, single point] |  |
| Cc1occc1C(=O)NCCc1ccc(Cl)cc1 | inconclusive: 3.55 µM [inhibitor, full curve, poor fit] |  |
| CC(=O)c1ccc(NC(=O)/C(C#N)=C/c2ccncc2)cc1 |  | inactive: -4.46% |
| O=C(CN1C(=O)NC(c2ccc(F)cc2)C1=O)Nc1ccc2c(c1)OCCO2 (configuration not stated) | inconclusive: 11.2 µM [inhibitor, single point] |  |
| COCCCN1C(=O)C(=O)/C(=C(/O)c2ccccc2)C1c1ccc(N(C)C)cc1 (configuration not stated) |  | inconclusive: 1.54% [phenotype inactive] |
| Cc1cccc(-n2c(-c3ccccc3)c[nH]c2=S)c1C | inconclusive: 11.2 µM [inhibitor, single point] |  |
| O=C(NCC1CCCO1)c1ccc([N+](=O)[O-])o1 (configuration not stated) |  | inactive: 4.45% |
| Cc1ccc(NC(=O)CSc2nc(-c3ccc(C(C)(C)C)cc3)nc3cc(=O)[nH]n23)cc1C | inconclusive: 8.91 µM [fluorescent, side channel, partial curve] |  |
| Clc1ccc(SCc2nc3ccccc3[nH]2)cc1 | inconclusive: 79.4 µM [inhibitor, single point] |  |
| O=[N+]([O-])c1ccc(Cc2ccc([N+](=O)[O-])cc2)cc1 | inconclusive: 35.5 µM [inhibitor, partial curve, poor fit] |  |
| CC1=NN(c2nc3ccccc3[nH]2)C(=O)/C1=C/N(C)C | inconclusive: 25.1 µM [inhibitor, partial curve, poor fit] |  |
| CCN1CCCC1CN(Cc1cc2ccc(C)cc2[nH]c1=O)C(=S)Nc1ccccc1C(=O)OC (configuration not stated) |  | inactive: -11.4% |
| CC(=O)NC(Cc1ccccc1)C(=O)NC(Cc1ccccc1)C(=O)O (stereo not drawn) (Ac-Phe-Phe-OH; configuration not given here) | inconclusive: 4.47 µM [inhibitor, partial curve, poor fit] |  |
